Taken from: PubChem BioAssay AID1259272 (Sanger Institute, 2017)
The whole screen tested 794 reagents; this is a random part of them. In the full data, 7 (0.88%) got an active call. 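Essential calls reflect knock-down without drug only, not synergy with drugs; drug exposure length not given.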 No viability above 1 is reported: the scale is capped. Further read-outs or replicates are left out here. No sequences are given here. The record does not give: the amount of reagent, the time to read-out.

- Screen: 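Kinase knock-downs lethal to colorectal cancer cells, with or without anchor drugs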 (primary screen)
- Cell system: SW1116 human colorectal cancer cells
- Knock-down reagent: siRNA pool against human genes
- Challenge: anchor drugs BYL719 (1 µM), cetuximab (5 µg/ml) or trametinib (10 nM), or DMSO vehicle; exposure length not given
- Read-out: 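Cell survival as a fraction of wells given a non-targeting pool, averaged over replicates; robust z-score without drug; synergy score for each of BYL719, cetuximab and trametinib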
- Reading the numbers: viability z-score, no drug: higher = more cells remaining; strongly negative means essential gene; viability, no drug: higher = more viable cells
- Units: viability, no drug in fraction of control
- Active means: 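a robust z-score under -3 with siRNA and no drug marks the gene essential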
- Meaning of the calls: active = essential (knock-down alone); inactive = no change

With knock-down of MAP3K2 the results were viability z-score, no drug -0.53; viability, no drug 0.854; inactive.
Depletion of SIK1 gave: viability z-score, no drug -1.03; viability, no drug 0.801; inactive.
Against PCK1, the values are viability z-score, no drug 0.842; viability, no drug 1; inactive.
Against ITPKB, the values are viability z-score, no drug 0.842; viability, no drug 1; inactive.
Knock-down of CDKL5 resulted in: viability z-score, no drug 0.165; viability, no drug 0.928; inactive.
Against PRKACG the deposit lists viability z-score, no drug 0.842; viability, no drug 1; inactive.
CDK5R1 scored viability z-score, no drug 0.842; viability, no drug 1; inactive.
LATS1 scored viability z-score, no drug -0.996; viability, no drug 0.804; inactive.
Knock-down of MET came out at: viability z-score, no drug 0.73; viability, no drug 0.988; inactive.

In a second layout: entries from further up
| gene | viability z-score, no drug | viability, no drug | activity call |
| --- | --- | --- | --- |
| ITPKB | 0.842 | 1 | inactive |
| CDKL5 | 0.165 | 0.928 | inactive |
| PRKACG | 0.842 | 1 | inactive |
| CDK5R1 | 0.842 | 1 | inactive |

The results go on.
Against EIF2AK1 the deposit lists viability z-score, no drug 0.842; viability, no drug 1; inactive.
For CDK3, the values are viability z-score, no drug 0.842; viability, no drug 1; inactive.
For MUSK the deposit lists viability z-score, no drug -2.71; viability, no drug 0.622; inactive.
Against TNK1 the deposit lists viability z-score, no drug -0.929; viability, no drug 0.811; inactive.
STK31 gave viability z-score, no drug -1.24; viability, no drug 0.778; inactive.
Knock-down of PIK3R4 came out at: viability z-score, no drug -0.488; viability, no drug 0.858; inactive.
RET scored viability z-score, no drug 0.842; viability, no drug 1; inactive.
For PNCK, the entry reads viability z-score, no drug -1.5; viability, no drug 0.75; inactive.
With knock-down of STK16, the record shows viability z-score, no drug 0.842; viability, no drug 1; inactive.
Knock-down of EFNA4 gave: viability z-score, no drug -1.46; viability, no drug 0.755; inactive.
N4BP2 scored viability z-score, no drug -0.353; viability, no drug 0.873; inactive.
Against EXOSC10, the entry reads viability z-score, no drug -1.14; viability, no drug 0.789; inactive.
Silencing of PDK1 gave: viability z-score, no drug -1.52; viability, no drug 0.748; inactive.
After knock-down of EPHB3 the results were viability z-score, no drug -1.81; viability, no drug 0.717; inactive.
Knock-down of ACVR2B gave: viability z-score, no drug 0.68; viability, no drug 0.983; inactive.
Against MAP3K5, the entry reads viability z-score, no drug 0.842; viability, no drug 1; inactive.
For GSK3A, the entry reads viability z-score, no drug -1.26; viability, no drug 0.777; inactive.
PRKAR1A gave viability z-score, no drug 0.842; viability, no drug 1; inactive.
Against ITK the deposit lists viability z-score, no drug 0.842; viability, no drug 1; inactive.
